Results from PubChem BioAssay AID1259415 (National Center for Advancing Translational Sciences (NCATS), 2018).
In all, about 410,000 compounds went through this assay and about 18,000 (4.4%) were called active. Inconclusive results, whose numbers are uncertain, are shown with a selection of clear calls. Rule as the data show it: active = activity change below about -60%; inconclusive = no clear call, values can overlap the other calls; inactive = above about -39%.
% is scaled to controls: 0 for no effect and ±100 for the full control effect.

Assay: qHTS Assay for inhibitors of the human cytomegalovirus (HCMV)
Conditions: HFF cells, HCMV-luciferase reporter, 72 h; at 57.5 µM; stronger effect = lower value
Procedure, shortened: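 After 16 h attachment at 37C, HFF cells received test compound and HCMV-luciferase (1 PFU/cell); reporter luminescence read 72 h later, data normalized against buffer-only and known inhibitor Salinomycin.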
For `Cc1cc(C(=O)CSc2nc3ccccc3[nH]2)c(C)n1Cc1ccco1`, the activity change, negative = inhibition was active: -85.2%.
For `CCc1ccc(/C=C2/SC(N3CCOCC3)=NC2=O)cc1`, the activity change, negative = inhibition was inconclusive: -47.5%.
With `Cc1cc(C(=O)CCl)c(C)n1-c1ccon1` the activity change, negative = inhibition was inconclusive: -41.9%.
In the case of `COc1ccc(C(=O)Nc2ccc(Cl)c(S(=O)(=O)Nc3ccccc3OC)c2)cc1`, the activity change, negative = inhibition is reported as active: -92.5%.
In the case of `O=C(N/N=C/c1ccc[nH]1)c1ccccc1[N+](=O)[O-]`, the activity change, negative = inhibition is reported as inconclusive: -53.4%.
With `CN(C)c1ccc(CNC(=O)C2CCCN(S(=O)(=O)c3ccc4c(c3)CCCC(=O)N4)C2)cc1` (configuration not stated) the activity change, negative = inhibition was inconclusive: -54.3%.
For `Cc1ccccc1C(=O)NCc1nc(-c2ccc(Cl)cc2)no1`, the activity change, negative = inhibition was inconclusive: -54.9%.
With `COc1cccc(C2/C(=C(/O)c3ccccc3)C(=O)C(=O)N2Cc2ccco2)c1` (configuration not stated) the activity change, negative = inhibition was inconclusive: -52.5%.
With `CCN(CC)CCn1c(-c2ccc(C)cc2)nc(=S)c2c1CC(C)(C)OC2` the activity change, negative = inhibition was inactive: -24.6%.
In the case of `CCN(Cc1cn2cccnc2n1)C1CCCCC1`, the activity change, negative = inhibition is reported as inactive: -7.29%.
In the case of `O=C(Nc1ccc(-c2nc3ccccc3o2)cc1)c1cc(-n2cnnc2)ccc1Cl`, the activity change, negative = inhibition is reported as active: -96.6%.
With `O=C(Nc1ccccc1)N1CCNCC1` the activity change, negative = inhibition was inconclusive: -45.6%.
In the case of `CN(C)C(=S)Nc1ccc(Br)c(Cl)c1`, the activity change, negative = inhibition is reported as inconclusive: -54.4%.
In the case of `COC(=O)c1ccc(CSc2nnc3c(n2)[nH]c2ccccc23)cc1`, the activity change, negative = inhibition is reported as inconclusive: -48.3%.
For `O=S1(=O)CC(O)C(Nc2ccc(Cl)cc2)C1` (configuration not stated), the activity change, negative = inhibition was inconclusive: -40.8%.
In the case of `COc1cccc(NC(=O)CN(C)C(=O)c2cc(Cl)nc3ccccc23)c1`, the activity change, negative = inhibition is reported as inconclusive: -48%.
With `COc1cccc(C2Nc3ccc4ccccc4c3C3=C2C(=O)CCC3)c1O` (configuration not stated) the activity change, negative = inhibition was inconclusive: -40.1%.
For `CCCOC(=O)c1ccc(Oc2coc3c(CN(CC)CC)c(O)ccc3c2=O)cc1`, the activity change, negative = inhibition was inconclusive: -58%.
For `COc1ccc(NC(=O)Nc2cccs2)cc1OC`, the activity change, negative = inhibition was inactive: -19%.
For `COC(=O)c1ccc(NC(=S)NCc2ccco2)cc1`, the activity change, negative = inhibition was inconclusive: -54.3%.
In the case of `CC1CN(CCS(=O)(=O)c2cc(Cl)ccc2Cl)CC(C)O1` (configuration not stated), the activity change, negative = inhibition is reported as inconclusive: -46.4%.
With `O=C(CCN1CCCCC1)Nc1ccc(Br)cc1C(=O)c1ccccc1` the activity change, negative = inhibition was inconclusive: -43.9%.
In the case of `Cc1ccc(-c2nnc3ccccc3c2C(=O)Nc2ccc(C)c(F)c2)cc1`, the activity change, negative = inhibition is reported as inactive: 0%.
With `CCN(CC(=O)Nc1cccc(C(C)=O)c1)S(=O)(=O)c1ccc(C)cc1` the activity change, negative = inhibition was inconclusive: -47.3%.
For `O=C(NC(=S)NCc1ccccc1)c1ccccc1`, the activity change, negative = inhibition was inactive: -15.1%.
For `CNC(=O)CN1C(=O)CSc2ncccc21`, the activity change, negative = inhibition was inconclusive: -41.3%.
For `CCn1cc(CN2CCC(C(=O)Nc3ccc(Oc4cccnc4)cc3)CC2)cn1`, the activity change, negative = inhibition was inconclusive: -45.5%.
For `O=C(CSc1ccccc1)NCC(c1ccco1)N1CCCCC1` (configuration not stated), the activity change, negative = inhibition was inconclusive: -53.3%.
In the case of `Cc1ccn2c(C(=O)NN=C3CCN(C)CC3)c(C)nc2c1`, the activity change, negative = inhibition is reported as inconclusive: -43.1%.
With `OC(c1cccc(OCc2ccccc2)c1)c1nnc(-c2ccccc2)o1` (configuration not stated) the activity change, negative = inhibition was inconclusive: -40.4%.
With `CCOC(=O)c1c(C)[nH]c(C)c1C(=O)CSc1nc2ccccc2c(=O)n1-c1ccc(Cl)cc1` the activity change, negative = inhibition was inconclusive: -41.5%.
In the case of `COc1ccc(S(=O)(=O)N2CCOCC2)cc1NC(=O)CO/N=C/c1ccccc1OC(F)F`, the activity change, negative = inhibition is reported as inconclusive: -41.4%.
In the case of `Nc1nc(N)nc(-c2ccccn2)n1`, the activity change, negative = inhibition is reported as inconclusive: -49.2%.
In the case of `CC1CCc2sc(C(=O)NNC(=O)c3ccncc3)cc2C1` (configuration not stated), the activity change, negative = inhibition is reported as inconclusive: -55.6%.
In the case of `O=C1c2ccccc2C(=O)c2c1ccc(O)c2O`, the activity change, negative = inhibition is reported as inactive: 17.8%.
For `CCC(C(=O)Nc1ccc(N2CCOCC2)c(S(=O)(=O)Nc2ccccc2OC)c1)c1ccccc1` (configuration not stated), the activity change, negative = inhibition was active: -81.2%.
In the case of `CCN1C(=O)/C(=C2\C=Cc3ccccc3N2CC)SC1=S`, the activity change, negative = inhibition is reported as inactive: -9.57%.
With `COc1cccc(/C=N/Nc2nc(Nc3ccc([N+](=O)[O-])cc3)nc(N3CCCC3)n2)c1O` the activity change, negative = inhibition was inconclusive: -55.9%.
In the case of `Cc1ccc(NC(c2ccccc2)c2nc3ccccc3[nH]c2=O)cc1` (configuration not stated), the activity change, negative = inhibition is reported as inconclusive: -41.4%.
For `N#Cc1c(NC(=O)/C=C/c2ccco2)sc2c1CCCC2`, the activity change, negative = inhibition was inconclusive: -59.1%.
In the case of `COc1ccc(-c2nc3ccc(C(=O)NCC(OC)OC)cc3nc2-c2ccc(OC)cc2)cc1`, the activity change, negative = inhibition is reported as active: -60.1%.
For `O=c1c2ccccc2nc(/C=C/c2ccccn2)n1-c1ccccc1`, the activity change, negative = inhibition was inconclusive: -52.6%.
In the case of `COc1ccc(C(C(=O)NC2CCCCC2)N(C(=O)c2snc(C(N)=O)c2N)c2ccc(OC)cc2OC)cc1` (configuration not stated), the activity change, negative = inhibition is reported as inconclusive: -42.8%.
In the case of `CNS(=O)(=O)c1cn(CC(=O)Nc2ccc(OC)c(Cl)c2)cc1S(=O)(=O)NC`, the activity change, negative = inhibition is reported as inactive: 0%.
In the case of `NC(=O)Cc1ccc(C(=O)CSc2nnc(-c3ccncc3)n2C2CC2)s1`, the activity change, negative = inhibition is reported as inactive: -22.3%.
For `CCn1cc(CN2CCC(C(=O)Nc3cccc(-c4cccc(Cl)c4)c3)CC2)c(C)n1`, the activity change, negative = inhibition was inconclusive: -47.2%.
For `O=C(Nc1cccc(C(F)(F)F)c1)c1csc(-c2ccncc2)n1`, the activity change, negative = inhibition was inconclusive: -47.3%.
With `Cc1occc1-c1nnc(SCC(=O)Nc2ccccc2-c2ccccc2)n1C` the activity change, negative = inhibition was inconclusive: -42.9%.
For `Cn1c(=O)[nH]c(=O)c2c1nc(N1CCOCC1)n2CCN1CCOCC1`, the activity change, negative = inhibition was inactive: 12%.
In the case of `O=C(Nc1ccc(N2CCN(C(=O)c3cccs3)CC2)cc1)c1cccc(F)c1`, the activity change, negative = inhibition is reported as inactive: 34.9%.
With `O=C(c1ccco1)N1CCN(c2ncnc3sc4c(c23)CCC4)CC1` the activity change, negative = inhibition was active: -66.7%.
With `Nc1nc(=S)c2[nH]cnc2[nH]1` the activity change, negative = inhibition was active: -85.8%.
For `COc1ccc(N(C(=O)c2cnccn2)C(C(=O)NC2CCCCC2)c2ccc(Cl)cc2)cc1` (configuration not stated), the activity change, negative = inhibition was inconclusive: -45.4%.
With `Cc1cc(N2CCCCC2)nc2ccc(NC(=O)c3ccc(F)cc3)cc12` the activity change, negative = inhibition was inconclusive: -42.1%.
In the case of `Fc1ccccc1-c1nc(NCc2ccccc2)c2ccccc2n1`, the activity change, negative = inhibition is reported as inactive: -23.9%.
In the case of `CCc1nnc(SCc2ccc(F)cc2Cl)c2cc3sccc3n12`, the activity change, negative = inhibition is reported as inconclusive: -50.3%.
With `COc1ccc(C)cc1NC(=O)C(Sc1nnc(Nc2cc(C)ccc2OC)s1)c1ccccc1` (configuration not stated) the activity change, negative = inhibition was inconclusive: -55.3%.
With `O=C(NNC(=S)NC(=O)C12CC3CC(CC(C3)C1)C2)c1ccncc1` the activity change, negative = inhibition was inconclusive: -51.1%.
With `COc1ccc(NC(=O)N2CCN(S(=O)(=O)c3ccc(F)cc3)CC2)c(OC)c1` the activity change, negative = inhibition was inconclusive: -44.5%.
For `Cc1cccn2c(=O)c(/C=C(\C#N)C(N)=O)c(N3CCN(Cc4ccc5c(c4)OCO5)CC3)nc12`, the activity change, negative = inhibition was active: -80%.
In the case of `COC(=O)/C(=C\c1cc(OC)c(OC)c(OC)c1)c1nc2ccccc2[nH]1`, the activity change, negative = inhibition is reported as active: -98.2%.
With `COc1ccc(NC(=O)NN(C(=O)c2ccccc2)C(C)(C)C)cc1` the activity change, negative = inhibition was inconclusive: -40.5%.
In the case of `CC(C)CC(=O)OC1C(N2CCOCC2)c2c(ccc(/C=C/C(=O)N3CCOCC3)c2O)OC1(C)C` (configuration not stated), the activity change, negative = inhibition is reported as inactive: 2.09%.
In the case of `CCOC(=O)c1cccc(NC(=O)c2cc3c(Cl)nc4ccc(C)cc4c3s2)c1`, the activity change, negative = inhibition is reported as inactive: -12.5%.
In the case of `O=C(NCCCO)C(=O)NCc1ccccn1`, the activity change, negative = inhibition is reported as inactive: -32.1%.
With `CC(C)CCNC(=O)CN1C(=O)COc2ccc(S(=O)(=O)N3CCOCC3)cc21` the activity change, negative = inhibition was inactive: 10.5%.
For `COc1ccc(NC(=O)C(=O)NCCc2ccccc2)cc1OC`, the activity change, negative = inhibition was active: -63.7%.
With `CCOc1cc(NS(=O)(=O)c2ccc(NC(C)=O)cc2)c(OCC)cc1NC(=O)c1cccs1` the activity change, negative = inhibition was active: -79.4%.
In the case of `CN1/C(=C\C(=O)c2ccco2)C(C)(C)c2ccccc21`, the activity change, negative = inhibition is reported as active: -71.2%.
With `CCN1CCN(C(=S)Nc2cccc(Cl)c2)CC1` the activity change, negative = inhibition was inconclusive: -47.3%.
In the case of `Cc1cc(NS(=O)(=O)c2ccc(NC(=O)COc3cc(C)c(Cl)c(C)c3)cc2)no1`, the activity change, negative = inhibition is reported as inconclusive: -41.5%.
With `COc1ccc(C/C(N)=N/OC(=O)c2ccc(Cl)cc2)cc1` the activity change, negative = inhibition was inconclusive: -40.2%.
In the case of `CCCCCCOC(=O)C1=C(C)NC(=O)NC1c1ccc2c(c1)OCO2` (configuration not stated), the activity change, negative = inhibition is reported as inactive: -35.1%.
For `CCCCCNC(=O)c1cc(S(=O)(=O)N2CCCCC2)ccc1F`, the activity change, negative = inhibition was active: -105%.
For `Cc1cc(C)n(-c2nnc(C)n2/N=C/c2cc(Br)ccc2OCc2ccccc2)n1`, the activity change, negative = inhibition was inactive: 42%.
For `Cc1cc(C)c2c(CC(=O)Nc3nnc(C(C)C)s3)coc2c1`, the activity change, negative = inhibition was inconclusive: -45%.
For `COc1ccc(NS(=O)(=O)c2ccc3nc(COc4ccc5ccccc5c4)[nH]c3c2)cc1`, the activity change, negative = inhibition was inconclusive: -54.8%.
In the case of `CCN(C[C@H]1N[C@@](C)(C(=O)OC)[C@H]2C(=O)N(C)C(=O)[C@@H]12)C(=O)COc1ccccc1`, the activity change, negative = inhibition is reported as inactive: -21.2%.
In the case of `CCOCCCNCc1ccc(OCc2ccccc2Cl)cc1`, the activity change, negative = inhibition is reported as inconclusive: -40.1%.
In the case of `CC(C)CC(=O)NCCNC(=O)c1cc(OCC(F)(F)F)ccc1OCC(F)(F)F`, the activity change, negative = inhibition is reported as inactive: 34.7%.
With `COC(=O)[C@]12OC[C@]34C([C@@H](O)[C@@H]1O)[C@]1(C)CC(=O)C(O)=C(C)[C@@H]1C[C@H]3OC(=O)[C@H](O)[C@@H]24` (some centres not stated) the activity change, negative = inhibition was inconclusive: -54.7%.
For `O=C(Nc1ccc(C(F)(F)F)cc1)C1CCCN1S(=O)(=O)c1cccc2cccnc12` (configuration not stated), the activity change, negative = inhibition was active: -74.5%.
For `CC(=O)N(Cc1cc(=O)[nH]c2ccccc12)c1cccc(C)c1`, the activity change, negative = inhibition was inactive: -6.03%.
For `COc1ccc(-c2sc(Nc3ccccc3)n[n+]2-c2ccccc2)cc1Br`, the activity change, negative = inhibition was inconclusive: -40.2%.
For `CCOc1ccc(OCC(O)CNC2CCN(Cc3ccccc3)CC2)cc1` (configuration not stated), the activity change, negative = inhibition was active: -64.4%.
For `C[C@@H]1CN([C@@H](C)CO)C(=O)c2cc(Br)cnc2O[C@@H]1CN(C)Cc1ccc(Oc2ccccc2)cc1`, the activity change, negative = inhibition was inactive: 5.2%.
In the case of `O=C(N/N=C/c1cccc(O)c1)NC1CCCCC1`, the activity change, negative = inhibition is reported as inactive: -2.81%.
